Values quoted from earlier work as cited in patent publication US20140370105A1, “TREATMENT OF INFLAMMATORY BOWEL DISEASE WITH 6-MERCAPTOPURINE” (Teva Pharmaceutical Industries, Ltd., priority 2008, published 2014).
Some entries share one result that the patent states for a list of compounds.

Test system: inflammatory bowel disease
Settings: IBD / Crohn's disease patients, conventional therapy

Sc1ncnc2nc[nH]c12 [6-MP, 6-mercaptopurine]
time required to be effective / show effect: 3-6 months
